{"source": "patent US20140120577A1", "about": "“Metalloporphyrin Inducible Promoter” (CHR HANSEN A/S, priority 2011, published 2014)", "system": "Streptococcus agalactiae NEM316", "test": "Final OD600 of Streptococcus agalactiae cultures after one hour of inducer treatment", "format": "cell-based", "key": {"[1]": {"settings": "BHI-Tris-glucose, aerated, 1 μM"}, "[2]": {"settings": "BHI-Tris-glucose, aerated, 10 μM"}, "[3]": {"settings": "BHI-Tris-glucose, non-aerated, 1 μM"}, "[4]": {"settings": "BHI-Tris-glucose, non-aerated, 10 μM"}, "[5]": {"settings": "M17-glucose, non-aerated, 10 μM"}}, "data": [{"compound": "C=CC1=C(C)C2=[N+]3C1=Cc1c(C)c(C=C)c4[n]1[Ga-]31[n]3c(c(C)c(CCC(=O)O)c3=CC3=[N+]1C(=C4)C(C)=C3CCC(=O)O)=C2", "note": "(stereo not shown) [Ga-PPIX, gallium-protoporphyrin IX]", "values": [{"measurement": "final OD600", "setting": "[1]", "result": 0.5}, {"measurement": "final OD600", "setting": "[2]", "result": 0.5}, {"measurement": "final OD600", "setting": "[3]", "result": 0.4}, {"measurement": "final OD600", "setting": "[4]", "result": 0.4}, {"measurement": "final OD600", "setting": "M17-glucose, aerated, 1 μM", "result": 0.8}, {"measurement": "final OD600", "setting": "M17-glucose, aerated, 10 μM", "result": 0.8}, {"measurement": "final OD600", "setting": "M17-glucose, non-aerated, 1 μM", "result": 0.8}, {"measurement": "final OD600", "setting": "[5]", "result": 0.8}]}, {"compound": "C=CC1=C(C)c2cc3[n-]c(cc4[n-]c(cc5nc(cc1n2)C(C)=C5C=C)c(C)c4CCC(=O)O)c(CCC(=O)O)c3C.[Cl-].[Fe+3]", "note": "[hemin]", "values": [{"measurement": "final OD600", "setting": "[1]", "result": 0.4}, {"measurement": "final OD600", "setting": "[2]", "result": 0.4}, {"measurement": "final OD600", "setting": "[3]", "result": 0.4}, {"measurement": "final OD600", "setting": "[4]", "result": 0.4}, {"measurement": "final OD600", "setting": "M17-glucose, aerated, 1 μM", "result": 0.6}, {"measurement": "final OD600", "setting": "M17-glucose, aerated, 10 μM", "result": 0.5}, {"measurement": "final OD600", "setting": "M17-glucose, non-aerated, 1 μM", "result": 0.8}, {"measurement": "final OD600", "setting": "[5]", "result": 0.8}]}]}
